From PubChem BioAssay AID493014 (National Center for Advancing Translational Sciences (NCATS), 2011)
Out of some 340,000 compounds screened, about 170 (0.05%) were called active. Inconclusive means that the source gave no clear call. Such entries were picked first, then a sample of the others. The call rests on the fitted dose curve; in most records, active means well fitted inhibition curve with a large enough effect in the signal ratio, with a control signal flat (not every such curve was filed as active); inconclusive means small, poorly fitted or top-dose-only effect, or effect the other way, or a change in a side signal; inactive means flat fitted curve, though single readings scatter; the % refers to the signal ratio. A potency beside an inconclusive call is a rough fit, not a confirmed value.
Potency means the concentration at half of the fitted maximal effect.

Assay: qHTS Assay to Find Inhibitors of Chronic Active B-Cell Receptor Signaling;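 on activity change, negative = inhibition: plate controls were basal doxycycline-induced cells for no effect and cells given 10 µM MG132 for full effect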
Details: ABC-DLBCL IkBa-CBG/CBR reporter, luminescence ratio (green luciferase fused to IkBa over red control in TMD8 lymphoma cells), 4 h; activity change, negative = inhibition: at 46.1 µM (top of the series)
Procedure, shortened: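 TMD8 ABC-DLBCL cells carrying doxycycline-inducible green luciferase fused to IkappaBalpha plus unfused red luciferase were exposed to compounds (up to 46 uM) for 4 hrs at 37C. Activity came from the overlap-corrected green/red luminescence ratio.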
For `CC(=O)c1cccc(NC(=O)C2CCCN2S(=O)(=O)c2cccc3nsnc23)c1` (configuration not stated), the activity change, negative = inhibition was inconclusive: -11.3%.
For `CCNC(=O)Cn1cnc2c1c(=O)n(C)c(=O)n2C`, the activity change, negative = inhibition was inconclusive: 12.4%.
For `CCc1nnc(NS(=O)(=O)c2ccc(NC(=S)NC(=O)c3ccccc3)cc2)s1`, the activity change, negative = inhibition was inconclusive: 6.6%.
With `O=C(CN1CCN(Cc2ccc3c(c2)OCO3)CC1)Nc1ccc2c(c1)OCO2` the Potency was inconclusive: 20.6 µM [falling, single point].
In the case of `CN(CC(=O)Nc1cccc(F)c1)CC(=O)Nc1ccccc1Oc1ccccc1`, the “activity change, negative = inhibition” value is reported as inactive: -12.1%.
In the case of `CC(C)(C)c1ccc(C(=O)Nc2ccc(C=C(C#N)C#N)cc2)cc1`, the activity change, negative = inhibition is reported as inconclusive: -1.32%.
For `Cc1ccc(C)c(S(=O)(=O)N2CCN(C(=O)CCC(=O)NCc3ccc(Cl)cc3)CC2)c1`, the activity change, negative = inhibition was inconclusive: 2.06%.
In the case of `O=C(O)c1ccccc1NS(=O)(=O)c1ccc(NN=Cc2ccccc2F)c([N+](=O)[O-])c1`, the activity change, negative = inhibition is reported as inconclusive: 0.96%.
In the case of `O=C(CCSc1ccccc1)NCCSCc1ccco1`, the activity change, negative = inhibition is reported as inconclusive: 5.59%.
For `CC1CC(C)(C)NC(=S)N1CCC(=O)N1CCc2ccccc2C1` (configuration not stated), the “activity change, negative = inhibition” value was inactive: 1.02%.
With `COc1ccccc1OCc1cc(C(=O)N(C)CCC2CCCCO2)no1` (configuration not stated) the activity change, negative = inhibition was inconclusive: 4.71%.
For `CC(C)c1ccc(NC2CCCN(C(=O)CCN3CCCO3)C2)cc1` (configuration not stated), the activity change, negative = inhibition was inconclusive: 7.7%.
For `Cc1c(-c2ccc(Br)cc2)nc2ccccn12`, the “activity change, negative = inhibition” value was inactive: 12.3%.
For `O=C(CNS(=O)(=O)c1c(F)cccc1F)NC1CCCc2ccccc21` (configuration not stated), the “activity change, negative = inhibition” value was inactive: 2.54%.
With `Cc1ccc(CN2CCN(CCCn3cccn3)CC2CCO)cc1` (configuration not stated) the activity change, negative = inhibition was inconclusive: 4.15%.
In the case of `COc1ccccc1NC(=S)NCCc1c[nH]c2ccccc12`, the activity change, negative = inhibition is reported as inconclusive: -12.4%.
In the case of `COc1ccc(C(=O)NNC(=S)NC(=O)/C=C/c2cccs2)cc1`, the Potency is reported as inconclusive: 35.5 µM [falling, single point].
For `CCOC(=O)c1c(NC(=O)CSc2nnc(Cc3ccccc3)o2)sc(C(C)=O)c1C`, the “activity change, negative = inhibition” value was inactive: -3.25%.
For `Cc1ccc2c(c1)sc1nc(=O)n(-c3ccccc3)c(=O)n12`, the Potency was inconclusive: 7.94 µM [falling, partial curve, poor fit].
For `CCOc1ccc(C2C([N+](=O)[O-])=C(C)N(C)C(=O)N2C)cc1OC` (configuration not stated), the Potency was inconclusive: 28.2 µM [falling, single point].
In the case of `CCOc1ccc2ccccc2c1C1NC(=S)N(C)C(C)=C1C(=O)OC` (configuration not stated), the “activity change, negative = inhibition” value is reported as inactive: 10.5%.
In the case of `CCOC(=O)c1nn(-c2ccc(C)cc2)cc1O`, the activity change, negative = inhibition is reported as inconclusive: -23%.
With `COc1ccc(C2CC(c3cccc(C)c3)n3nc(N)nc3N2)cc1` (configuration not stated) the “activity change, negative = inhibition” value was inactive: 7.15%.
For `Cc1ccc(S(=O)(=O)Nc2ccc(C(OC(=O)c3ccccc3[N+](=O)[O-])(C(F)(F)F)C(F)(F)F)cc2)cc1`, the activity change, negative = inhibition was inconclusive: -11.6%.
For `C=CCOc1ccc(/C=C2\N=C(C)OC2=O)cc1OC`, the “activity change, negative = inhibition” value was inactive: 2.52%.
For `CCc1sc(C(=O)NC2CCN(C)CC2)cc1Br`, the activity change, negative = inhibition was inconclusive: -21.7%.
For `C=CCc1ccc(OCc2ccc(C(=O)O)o2)c(OC)c1`, the Potency was inconclusive: 4.47 µM [falling, partial curve].
For `CCc1c(C)sc(NC(=O)c2cc(C3CC3)on2)c1C#N`, the activity change, negative = inhibition was inconclusive: 10.7%.
With `CCc1ccc(C2c3[nH]c4ccccc4c3CCN2C(=O)c2cc[n+]([O-])cc2)cc1` (configuration not stated) the Potency was inconclusive: 17.8 µM [falling, single point].
In the case of `COc1cccc(C(=O)NC(=S)Nn2cnnc2)c1OC`, the activity change, negative = inhibition is reported as inconclusive: 3.35%.
With `COC(=O)C1CC(=O)N(c2ccc(OCc3ccccc3Cl)cc2)C1` (configuration not stated) the activity change, negative = inhibition was inconclusive: -14.6%.
With `CN1CCN(c2ccccc2NC(=O)COc2ccc(Br)cc2)CC1` the Potency was inconclusive: 32.6 µM [falling, single point].
With `CCOC(=O)c1c(NC(=O)CSc2nnnn2-c2ccc3c(c2)OCO3)sc(C)c1C` the “activity change, negative = inhibition” value was inactive: -0.187%.
For `COc1ccc(C(CCN)c2ccc3c(c2)OCO3)cc1` (configuration not stated), the activity change, negative = inhibition was inconclusive: -3.65%.
For `S=c1[nH]nc(COc2ccc(Cl)cc2Cl)n1-c1ccccc1`, the “activity change, negative = inhibition” value was inactive: 0.606%.
In the case of `CCOc1ccc(OCCSc2nnnn2C2CCCCC2)cc1`, the activity change, negative = inhibition is reported as inconclusive: -6.86%.
For `Cc1cc(CNC(=O)CC2C(=O)NCCN2Cc2ccccc2C(F)(F)F)on1` (configuration not stated), the activity change, negative = inhibition was inconclusive: 1.84%.
With `COc1cc(C(=O)NNC(=S)NC(=O)/C=C/c2ccccc2)cc(OC)c1OC` the activity change, negative = inhibition was inconclusive: -1.35%.
With `COc1cccc(C(=O)Nc2cccc3ccccc23)c1OC` the activity change, negative = inhibition was inconclusive: 8.8%.
In the case of `CC(=O)Nc1cccc(C(=O)N2CCN(Cc3ccccc3)CC2)c1`, the activity change, negative = inhibition is reported as inconclusive: -4.99%.
With `CCOC(=O)c1c(NC(=O)COC(=O)c2cc(OC)c(OC)cc2[N+](=O)[O-])sc(C)c1C` the activity change, negative = inhibition was inconclusive: -1.91%.
For `O=C(CCCc1ccccc1)Nc1ccnn1C1CCN(Cc2ccccc2F)CC1`, the “activity change, negative = inhibition” value was inactive: -4.2%.
